Hit rate of the full screen: of about 140,000 compounds, about 4,300 (3.1%) were called active. The shares of active, inactive and inconclusive entries below differ from those in the screen.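 Rule for the calls: active = readout at or below -70, meaning at least 70% loss of cells showing the perinucleolar compartment, a nuclear body marking cancer cells; inconclusive = readout between -30 and a set limit; inactive = the rest.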
Assay: High Content Assay for Compounds that inhibit the Assembly of the Perinucleolar Compartment;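 note: plate controls were DMSO wells for no effect and camptothecin positive control wells for full effect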
Conditions: PC3M PTB-GFP, PNC prevalence imaging, 16 h; at 10 µM; hits give low values
In short: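 Read-out is percentage of cells bearing a perinucleolar compartment, from automated 20x imaging of fixed, Hoechst-stained PC3M PTB-GFP cells. Cells were seeded 4 h, then exposed 16 h to compound (23 nl of library stock) in duplicate plates.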

Row | SMILES | activity change (PNC), negative = inhibition
1 | COc1ccc(OC)c(NC(=O)CSC2=C(C#N)C(c3ccco3)C3=C(CCCC3=O)N2)c1 (centres undefined) | inactive: -29.9%
2 | O=C(NC(=S)N1CCN(C(c2ccccc2)c2ccccc2)CC1)c1ccc(S(=O)(=O)N2CCOCC2)cc1 | inactive: 2.2%
3 | CC(NC(=O)Cn1cc2c(n1)CCCCC2)c1ccccc1 (centres undefined) | inconclusive: -30.1%
4 | CCCCCCCNC1=CC(=O)CC(c2ccccc2)C1 (centres undefined) | inactive: 25%
5 | Cc1ccc(NC(=S)NN(C)c2cc(C)nc(C)n2)cc1 | inactive: -13.3%
6 | CCOC(=O)CSc1c(-c2cccs2)[nH]c2ccccc12 | inactive: 45.9%
7 | Cc1ccc(C(=O)CN(C(=O)c2ccc(Cl)c(Cl)c2)N2C(=O)C3C4C=CC(C4)C3C2=O)cc1 (centres undefined) | inconclusive: -69%
8 | O=C(Oc1ccc(Cl)c2cccnc12)N1CCOCC1 | inconclusive: -47%
9 | Cc1nc2nc(C)c(CCC(=O)O)c(C)n2n1 | inconclusive: -31.3%
10 | O=C(NN=C1CCN(Cc2ccccc2)CC1)c1ccccc1 | inconclusive: -55.9%
11 | Cc1cc([N+](=O)[O-])cnc1N1CCOCC1 | active: -114%
12 | COC(=O)[C@@]1(Cc2ccc(OC)cc2)[C@@H]2[C@@H](CC(=O)[C@H]2CC(=O)C(=O)N(C)C)CN1C(=O)c1ccccc1 | active: -87.7%
13 | Cc1ccc(-n2c(C)cc(C(=O)COc3c(CO)cc(F)cc3CO)c2C)cc1C | inconclusive: -33.5%
14 | CCCC(C)NCC(=O)Nc1ccccc1-c1ccccc1 (centres undefined) | inactive: 11.7%
15 | COC(=O)C(C)Sc1nc2c(c(=O)n(C)c(=O)n2C)n1CCC(C)C (centres undefined) | inactive: -6.86%
16 | S=C(NCCc1ccccc1)N/N=C/c1c(Cl)cccc1Cl | inactive: 7.23%
17 | CC(C)(C)C(=O)CC1(O)C(=O)N(Cc2ccc(Cl)cc2)c2ccccc21 (centres undefined) | inactive: 15.9%
18 | Clc1ccc(-c2nnc(CNC3CC3)o2)cc1 | inactive: 15.6%
19 | COc1ccc(Cn2ccnc2)cc1[N+](=O)[O-] | inconclusive: -67.5%
20 | COc1ccc(C2CC(=O)C3=C(C2)Nc2ccccc2N(C(=O)C2CC2)C3c2cccnc2)cc1OC (centres undefined) | inconclusive: -38.8%
21 | COc1cc(N(C(=O)Cc2cccs2)C(C(=O)NC2CCCCC2)c2ccc(C)cc2)ccc1-n1cnnn1 (centres undefined) | inconclusive: -43.5%
22 | COc1ccc(C(NC(=O)N2CC(C)OC(C)C2)C(Cl)(Cl)Cl)cc1F (centres undefined) | inactive: 14.2%
23 | CCC(CC)C1=NN2C(=N)/C(=C\c3cc(C)n(-c4cccc(C)c4)c3C)C(=O)N=C2S1 | inactive: 2.46%
24 | Cc1ccc(C)c(OCCCN2CCCC2)c1 | inconclusive: -69.7%

Another view of 4 compounds above.
Row	SMILES	activity change (PNC), negative = inhibition
1	COc1ccc(OC)c(NC(=O)CSC2=C(C#N)C(c3ccco3)C3=C(CCCC3=O)N2)c1 (centres undefined)	inactive: -29.9%
2	O=C(NC(=S)N1CCN(C(c2ccccc2)c2ccccc2)CC1)c1ccc(S(=O)(=O)N2CCOCC2)cc1	inactive: 2.2%
3	CC(NC(=O)Cn1cc2c(n1)CCCCC2)c1ccccc1 (centres undefined)	inconclusive: -30.1%
4	CCCCCCCNC1=CC(=O)CC(c2ccccc2)C1 (centres undefined)	inactive: 25%

— PubChem BioAssay AID2417 (National Center for Advancing Translational Sciences (NCATS), 2010)
